The chains behind the UniProt entries cited, without tags or fusion partners. Residues count along the entry.
UniProt Q9UNE7: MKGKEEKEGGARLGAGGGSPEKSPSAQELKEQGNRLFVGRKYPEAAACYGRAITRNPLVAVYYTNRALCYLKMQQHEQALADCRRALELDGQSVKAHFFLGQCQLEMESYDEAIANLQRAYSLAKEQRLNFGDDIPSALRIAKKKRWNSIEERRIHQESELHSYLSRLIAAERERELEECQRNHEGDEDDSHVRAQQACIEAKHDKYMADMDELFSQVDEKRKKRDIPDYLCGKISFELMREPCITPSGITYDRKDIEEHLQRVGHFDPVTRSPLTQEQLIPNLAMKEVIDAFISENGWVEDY
UniProt P11021, residues 19-654: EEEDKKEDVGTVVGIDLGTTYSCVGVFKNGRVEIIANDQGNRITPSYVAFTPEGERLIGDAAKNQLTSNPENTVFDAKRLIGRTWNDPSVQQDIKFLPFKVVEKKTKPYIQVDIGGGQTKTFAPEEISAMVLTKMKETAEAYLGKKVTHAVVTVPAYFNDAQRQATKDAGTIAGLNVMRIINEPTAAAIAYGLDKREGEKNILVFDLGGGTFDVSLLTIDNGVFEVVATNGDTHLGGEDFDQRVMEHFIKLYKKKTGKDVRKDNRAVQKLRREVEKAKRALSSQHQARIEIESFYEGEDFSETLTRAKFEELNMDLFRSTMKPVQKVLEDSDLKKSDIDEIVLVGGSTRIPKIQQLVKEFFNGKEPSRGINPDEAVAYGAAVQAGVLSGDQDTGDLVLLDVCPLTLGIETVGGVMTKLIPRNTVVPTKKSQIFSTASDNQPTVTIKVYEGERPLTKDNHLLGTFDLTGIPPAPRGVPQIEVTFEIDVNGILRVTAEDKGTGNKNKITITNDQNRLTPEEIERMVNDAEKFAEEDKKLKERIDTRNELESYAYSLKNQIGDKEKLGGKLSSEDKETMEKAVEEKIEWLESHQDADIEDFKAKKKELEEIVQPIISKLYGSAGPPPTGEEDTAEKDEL

According to PMC12520695:

What was measured:
[1] = target: T1, MLF2-SFB (stably expressed in U2OS) (UniProt Q15773); test: affinity purification with mass spectrometry; tandem affinity purification (TAP-MS): U2OS cells stably expressing MLF2-SFB lysed in NETN buffer (100 mM NaCl, 20 mM Tris-Cl pH 8.0, 0.5 mM EDTA, 0.5% NP-40); streptavidin beads, biotin elution, S-protein beads; SDS-PAGE and MS
T1 sequence: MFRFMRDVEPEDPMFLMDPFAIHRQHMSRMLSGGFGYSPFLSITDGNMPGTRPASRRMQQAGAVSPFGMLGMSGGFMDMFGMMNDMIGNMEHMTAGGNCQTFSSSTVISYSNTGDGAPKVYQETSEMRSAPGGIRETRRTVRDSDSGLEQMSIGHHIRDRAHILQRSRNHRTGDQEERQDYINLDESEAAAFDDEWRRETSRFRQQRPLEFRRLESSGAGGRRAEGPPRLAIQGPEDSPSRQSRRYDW

[2] = target: STUB1-SFB (stably expressed in HEK293T) (UniProt Q9UNE7); test: affinity purification with mass spectrometry; HEK293T cells stably expressing STUB1-SFB lysed in NETN buffer (100 mM NaCl, 20 mM Tris-Cl pH 8.0, 0.5 mM EDTA, 0.5% NP-40); streptavidin beads overnight at 4°C, biotin elution, S-protein beads; SDS-PAGE and MS

## STUB1, endogenous (from UniProt Q9UNE7 1-303) (enzyme)
[1]
  binding: binds

## binding immunoglobulin protein (BiP), endogenous (from UniProt P11021 19-654)
[1]
  binding: binds

B1: myeloid leukemia factor 2 (MLF2), endogenous (protein, UniProt Q15773 1-248)
chain: T1 sequence
[2]
  binding: binds

B2: CCDC38, endogenous (protein, UniProt Q502W7 1-563)
chain: MSSNLLPTLNSGGKVKDGSTKEDRPYKIFFRDLFLVKENEMAAKETEKFMNRNMKVYQKTTFSSRMKSHSYLSQLAFYPKRSGRSFEKFGPGPAPIPRLIEGSDTKRTVHEFINDQRDRFLLEYALSTKRNTIKKFEKDIAMRERQLKKAEKKLQDDALAFEEFLRENDQRSVDALKMAAQETINKLQMTAELKKASMEVQAVKSEIAKTEFLLREYMKYGFFLLQMSPKHWQIQQALKRAQASKSKANIILPKILAKLSLHSSNKEGILEESGRTAVLSEDASQGRDSQGKPSRSLTRTPEKKKSNLAESFGSEDSLEFLLDDEMDVDLEPALYFKEPEELLQVLRELEEQNLTLFQYSQDVDENLEEVNKREKVIQDKTNSNIEFLLEQEKMLKANCVREEEKAAELQLKSKLFSFGEFNSDAQEILIDSLSKKITQVYKVCIGDAEDDGLNPIQKLVKVESRLVELCDLIESIPKENVEAIERMKQKEWRQKFRDEKMKEKQRHQQERLKAALEKAVAQPKKKLGRRLVFHSKPPSGNKQQLPLVNETKTKSQEEEYFFT
[2]
  binding: binds

Results are given in words; binding and its absence hold for the method and conditions named. In cells and extracts the contact can be indirect. These calls come from enrichment with a bait or labelling near it, and not all partners need be listed.
